Substitutions are numbered along the chain they refer to. These are yes or no findings as the source states them, for the method shown. Binding seen in cells or lysates may run through a third protein. Some results given as binding are weak or reduced against the parent protein; the word gives no strength. Where a sequence is shown, tags or fusion partners need not be part of it.
Legend:
Assay in all cases: co-IP
[1] = biological target: T1, FLAG-tagged human ZBP1 mutant RHIM B (tetra-Ala substitution of amino acids 264-267) (human) (UniProt Q9H171)
T1 sequence: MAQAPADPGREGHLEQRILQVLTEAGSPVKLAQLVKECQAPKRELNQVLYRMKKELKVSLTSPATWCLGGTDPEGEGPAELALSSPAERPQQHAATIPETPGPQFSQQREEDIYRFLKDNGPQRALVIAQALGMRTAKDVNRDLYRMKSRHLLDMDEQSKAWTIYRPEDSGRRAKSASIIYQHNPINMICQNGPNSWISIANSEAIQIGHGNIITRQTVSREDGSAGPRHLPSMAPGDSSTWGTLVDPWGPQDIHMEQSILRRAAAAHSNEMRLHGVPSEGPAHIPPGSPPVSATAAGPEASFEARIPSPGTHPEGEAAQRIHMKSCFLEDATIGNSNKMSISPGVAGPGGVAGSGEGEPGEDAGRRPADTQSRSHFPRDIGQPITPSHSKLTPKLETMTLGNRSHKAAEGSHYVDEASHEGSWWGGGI

Chains of the proteins cited; added tags and fusions are not shown.
UniProt Q13546: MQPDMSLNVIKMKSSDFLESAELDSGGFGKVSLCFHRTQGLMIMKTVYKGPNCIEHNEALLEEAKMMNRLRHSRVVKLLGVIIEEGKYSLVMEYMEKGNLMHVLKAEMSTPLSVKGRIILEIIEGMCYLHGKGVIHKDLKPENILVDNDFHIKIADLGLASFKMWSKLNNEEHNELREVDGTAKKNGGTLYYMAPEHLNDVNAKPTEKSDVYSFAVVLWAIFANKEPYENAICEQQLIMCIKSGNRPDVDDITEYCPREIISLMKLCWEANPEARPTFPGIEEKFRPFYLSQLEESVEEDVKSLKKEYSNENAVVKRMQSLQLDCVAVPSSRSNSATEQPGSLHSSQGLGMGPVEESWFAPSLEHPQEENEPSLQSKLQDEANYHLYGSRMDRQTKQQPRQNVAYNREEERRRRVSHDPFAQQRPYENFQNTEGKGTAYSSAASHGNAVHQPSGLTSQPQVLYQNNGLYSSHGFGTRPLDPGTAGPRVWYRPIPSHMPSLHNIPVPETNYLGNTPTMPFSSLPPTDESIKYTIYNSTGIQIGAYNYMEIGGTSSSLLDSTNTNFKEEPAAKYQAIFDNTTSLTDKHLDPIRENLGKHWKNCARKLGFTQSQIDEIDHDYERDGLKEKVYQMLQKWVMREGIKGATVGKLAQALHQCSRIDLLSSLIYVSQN
UniProt Q9Y572: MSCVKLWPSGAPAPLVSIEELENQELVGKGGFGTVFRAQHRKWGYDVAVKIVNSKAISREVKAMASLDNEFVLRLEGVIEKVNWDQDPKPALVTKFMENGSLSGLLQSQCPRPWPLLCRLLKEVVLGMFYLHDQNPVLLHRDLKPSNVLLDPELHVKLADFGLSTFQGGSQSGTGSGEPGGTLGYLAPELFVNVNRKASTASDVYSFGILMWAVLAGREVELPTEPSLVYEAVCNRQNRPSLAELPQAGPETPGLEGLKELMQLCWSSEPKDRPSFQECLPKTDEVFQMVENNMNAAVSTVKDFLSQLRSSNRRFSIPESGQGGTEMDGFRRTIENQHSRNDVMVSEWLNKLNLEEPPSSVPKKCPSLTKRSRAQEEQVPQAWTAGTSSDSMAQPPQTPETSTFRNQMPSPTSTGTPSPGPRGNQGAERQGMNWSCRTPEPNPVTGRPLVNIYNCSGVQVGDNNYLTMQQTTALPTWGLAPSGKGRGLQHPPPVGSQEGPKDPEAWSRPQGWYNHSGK
UniProt Q9QZL0: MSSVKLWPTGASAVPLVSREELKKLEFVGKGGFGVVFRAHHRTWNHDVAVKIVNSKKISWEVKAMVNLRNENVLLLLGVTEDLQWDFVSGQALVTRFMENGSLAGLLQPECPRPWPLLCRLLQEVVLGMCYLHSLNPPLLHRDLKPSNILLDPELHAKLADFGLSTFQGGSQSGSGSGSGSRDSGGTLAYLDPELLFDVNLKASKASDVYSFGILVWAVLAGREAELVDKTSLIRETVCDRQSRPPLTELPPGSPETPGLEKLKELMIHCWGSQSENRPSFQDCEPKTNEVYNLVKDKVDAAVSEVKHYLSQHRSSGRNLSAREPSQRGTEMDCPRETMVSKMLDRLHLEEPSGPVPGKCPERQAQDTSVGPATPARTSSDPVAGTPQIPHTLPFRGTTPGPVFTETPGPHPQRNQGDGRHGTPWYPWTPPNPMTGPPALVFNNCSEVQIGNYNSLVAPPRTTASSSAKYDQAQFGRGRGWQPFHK

[2] = biological target: T2, FLAG-tagged human ZBP1 mutant Zα1 (N46D/Y50A) (human) (UniProt Q9H171)
T2 sequence: T1 sequence with N46D, Y50A, A264V, A265Q, A266L, A267G

[3] = biological target: T3, Flag-mZBP1 expressed in MEFs (mouse) (UniProt Q9QY24)
T3 sequence: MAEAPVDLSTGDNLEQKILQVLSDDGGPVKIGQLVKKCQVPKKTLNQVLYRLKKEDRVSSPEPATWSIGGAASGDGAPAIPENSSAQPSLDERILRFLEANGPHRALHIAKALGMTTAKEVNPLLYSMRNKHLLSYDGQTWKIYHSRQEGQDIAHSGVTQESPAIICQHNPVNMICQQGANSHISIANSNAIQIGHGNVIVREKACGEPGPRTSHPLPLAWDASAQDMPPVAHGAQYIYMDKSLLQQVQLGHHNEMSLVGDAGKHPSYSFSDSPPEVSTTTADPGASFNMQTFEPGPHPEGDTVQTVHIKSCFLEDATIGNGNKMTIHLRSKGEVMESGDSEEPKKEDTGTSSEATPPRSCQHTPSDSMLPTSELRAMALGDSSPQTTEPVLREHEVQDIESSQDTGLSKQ

[4] = biological target: T4, FLAG-tagged human ZBP1 (Flag-hZBP1) (human) (UniProt Q9H171)
T4 sequence: T1 sequence with A264V, A265Q, A266L, A267G

Row | binding [1] | binding [2] | binding [3] | binding [4] | Substance
1 | binds | binds |  |  | RIPK1 (endogenous, human cells) (from UniProt Q13546 1-671)
2 | binds | binds |  |  | RIPK3 (endogenous, human cells) (from UniProt Q9Y572 1-518)
3 |  |  | binds |  | RIPK3 (endogenous, mouse cells) (from UniProt Q9QZL0 1-486)
4 |  |  |  | binds | mouse RIPK3 (mRIPK3) reconstituted in HT29-hZBP1 (RIPK3 KO) cells (from UniProt Q9QZL0 1-486)

Source: PMC11844899
